Test results: the supplement of paper PMC10849652
The other results are listed elsewhere or left out.

Chains of the proteins cited; added tags and fusions are not shown. Lines headed by an entry give the natural chain unless they say otherwise; changes in a name come on top.
UniProt P21266: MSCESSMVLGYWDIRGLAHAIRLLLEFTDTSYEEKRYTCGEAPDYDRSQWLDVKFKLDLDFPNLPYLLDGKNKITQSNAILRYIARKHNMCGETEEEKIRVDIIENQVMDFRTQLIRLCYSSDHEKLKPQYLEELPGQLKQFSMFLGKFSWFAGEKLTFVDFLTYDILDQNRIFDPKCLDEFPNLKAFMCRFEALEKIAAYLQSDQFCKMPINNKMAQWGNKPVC
UniProt O00178: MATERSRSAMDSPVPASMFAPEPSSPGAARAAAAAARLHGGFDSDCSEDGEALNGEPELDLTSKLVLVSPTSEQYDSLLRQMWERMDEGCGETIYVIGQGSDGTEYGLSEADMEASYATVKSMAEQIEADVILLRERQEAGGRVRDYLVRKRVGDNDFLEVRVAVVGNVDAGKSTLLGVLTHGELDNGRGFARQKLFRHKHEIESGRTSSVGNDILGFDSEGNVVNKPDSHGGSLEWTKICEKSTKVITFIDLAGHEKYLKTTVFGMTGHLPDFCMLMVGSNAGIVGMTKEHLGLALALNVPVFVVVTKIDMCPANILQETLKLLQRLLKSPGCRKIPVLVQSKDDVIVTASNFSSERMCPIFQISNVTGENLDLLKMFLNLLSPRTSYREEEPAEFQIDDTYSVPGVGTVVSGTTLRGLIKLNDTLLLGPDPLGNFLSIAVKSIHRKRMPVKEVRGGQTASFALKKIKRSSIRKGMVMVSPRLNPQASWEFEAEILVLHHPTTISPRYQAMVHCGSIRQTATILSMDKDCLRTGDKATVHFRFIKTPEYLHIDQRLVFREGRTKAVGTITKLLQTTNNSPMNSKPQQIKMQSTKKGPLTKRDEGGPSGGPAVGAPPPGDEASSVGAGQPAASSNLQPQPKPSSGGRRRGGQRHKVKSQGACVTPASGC
UniProt P10412, whole entry, looked up: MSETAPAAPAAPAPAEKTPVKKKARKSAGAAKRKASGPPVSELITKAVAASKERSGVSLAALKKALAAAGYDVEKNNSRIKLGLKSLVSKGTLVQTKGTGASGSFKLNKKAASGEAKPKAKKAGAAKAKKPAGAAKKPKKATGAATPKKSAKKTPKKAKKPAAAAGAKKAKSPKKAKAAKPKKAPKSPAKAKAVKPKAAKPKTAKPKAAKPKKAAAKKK
UniProt O94992, whole entry, looked up: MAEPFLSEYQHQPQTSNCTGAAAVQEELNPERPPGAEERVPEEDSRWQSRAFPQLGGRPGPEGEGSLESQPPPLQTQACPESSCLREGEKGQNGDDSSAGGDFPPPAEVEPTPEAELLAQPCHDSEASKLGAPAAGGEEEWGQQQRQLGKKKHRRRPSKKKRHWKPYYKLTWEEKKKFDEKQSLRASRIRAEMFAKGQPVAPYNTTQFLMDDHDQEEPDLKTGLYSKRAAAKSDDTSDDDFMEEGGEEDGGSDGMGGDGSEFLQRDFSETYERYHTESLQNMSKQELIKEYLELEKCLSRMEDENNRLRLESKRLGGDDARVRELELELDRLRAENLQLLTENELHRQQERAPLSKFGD
UniProt Q12789: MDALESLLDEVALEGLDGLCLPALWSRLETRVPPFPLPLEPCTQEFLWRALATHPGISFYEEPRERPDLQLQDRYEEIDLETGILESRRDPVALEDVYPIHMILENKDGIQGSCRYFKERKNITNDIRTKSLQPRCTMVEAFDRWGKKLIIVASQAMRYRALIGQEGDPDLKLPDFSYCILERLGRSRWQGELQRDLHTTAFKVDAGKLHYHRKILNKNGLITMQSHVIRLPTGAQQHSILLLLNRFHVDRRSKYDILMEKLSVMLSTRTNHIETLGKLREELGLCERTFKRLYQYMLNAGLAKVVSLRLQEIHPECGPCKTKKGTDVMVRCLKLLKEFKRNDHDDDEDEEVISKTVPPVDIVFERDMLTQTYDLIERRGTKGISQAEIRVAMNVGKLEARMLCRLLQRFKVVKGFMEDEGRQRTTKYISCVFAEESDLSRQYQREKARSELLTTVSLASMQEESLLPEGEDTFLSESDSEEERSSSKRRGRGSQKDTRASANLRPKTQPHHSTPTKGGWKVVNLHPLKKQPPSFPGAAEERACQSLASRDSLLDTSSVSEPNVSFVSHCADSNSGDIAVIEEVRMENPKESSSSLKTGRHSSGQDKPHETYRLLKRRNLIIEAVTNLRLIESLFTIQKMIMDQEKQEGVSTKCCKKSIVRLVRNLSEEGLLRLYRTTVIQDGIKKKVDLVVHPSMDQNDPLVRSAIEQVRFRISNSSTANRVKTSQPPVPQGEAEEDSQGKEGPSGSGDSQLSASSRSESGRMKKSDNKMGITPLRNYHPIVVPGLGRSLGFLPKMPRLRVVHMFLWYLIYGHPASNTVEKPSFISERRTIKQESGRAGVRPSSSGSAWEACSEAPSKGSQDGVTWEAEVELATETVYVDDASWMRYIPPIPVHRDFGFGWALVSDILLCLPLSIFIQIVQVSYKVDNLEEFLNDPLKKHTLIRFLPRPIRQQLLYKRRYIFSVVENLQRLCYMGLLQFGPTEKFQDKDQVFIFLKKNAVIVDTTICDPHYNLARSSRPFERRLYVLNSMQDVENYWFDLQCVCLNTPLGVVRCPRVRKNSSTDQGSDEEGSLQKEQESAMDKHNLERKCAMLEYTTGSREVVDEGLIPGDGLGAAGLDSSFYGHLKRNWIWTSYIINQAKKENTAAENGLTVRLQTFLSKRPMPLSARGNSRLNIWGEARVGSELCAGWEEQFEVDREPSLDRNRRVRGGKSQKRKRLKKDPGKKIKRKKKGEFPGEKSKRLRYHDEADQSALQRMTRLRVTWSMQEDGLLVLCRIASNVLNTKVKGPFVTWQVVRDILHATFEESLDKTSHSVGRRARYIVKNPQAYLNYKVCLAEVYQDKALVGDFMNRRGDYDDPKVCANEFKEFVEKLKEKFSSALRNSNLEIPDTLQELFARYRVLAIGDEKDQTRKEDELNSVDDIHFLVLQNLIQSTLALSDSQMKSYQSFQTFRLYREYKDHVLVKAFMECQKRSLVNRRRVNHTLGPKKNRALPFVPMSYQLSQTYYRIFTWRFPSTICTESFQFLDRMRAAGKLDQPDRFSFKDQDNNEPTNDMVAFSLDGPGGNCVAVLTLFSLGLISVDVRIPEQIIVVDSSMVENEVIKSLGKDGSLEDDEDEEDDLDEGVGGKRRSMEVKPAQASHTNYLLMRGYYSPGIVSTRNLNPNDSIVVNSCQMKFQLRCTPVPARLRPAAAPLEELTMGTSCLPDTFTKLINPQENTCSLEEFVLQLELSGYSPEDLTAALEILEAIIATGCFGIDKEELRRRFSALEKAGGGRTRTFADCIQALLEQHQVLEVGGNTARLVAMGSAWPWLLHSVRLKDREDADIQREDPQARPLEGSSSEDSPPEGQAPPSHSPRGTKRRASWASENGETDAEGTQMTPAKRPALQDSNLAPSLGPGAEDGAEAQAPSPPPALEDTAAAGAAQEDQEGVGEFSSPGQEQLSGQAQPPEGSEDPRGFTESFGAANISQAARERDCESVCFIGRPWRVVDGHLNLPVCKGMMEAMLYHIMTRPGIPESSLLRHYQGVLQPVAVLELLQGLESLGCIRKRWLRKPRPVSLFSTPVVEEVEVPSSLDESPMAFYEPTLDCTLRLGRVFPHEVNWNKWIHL
UniProt P02100: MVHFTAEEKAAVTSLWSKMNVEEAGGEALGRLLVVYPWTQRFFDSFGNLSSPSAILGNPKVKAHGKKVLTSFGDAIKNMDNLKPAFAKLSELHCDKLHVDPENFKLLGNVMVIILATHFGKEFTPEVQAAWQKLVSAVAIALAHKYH
UniProt Q9Y3E1: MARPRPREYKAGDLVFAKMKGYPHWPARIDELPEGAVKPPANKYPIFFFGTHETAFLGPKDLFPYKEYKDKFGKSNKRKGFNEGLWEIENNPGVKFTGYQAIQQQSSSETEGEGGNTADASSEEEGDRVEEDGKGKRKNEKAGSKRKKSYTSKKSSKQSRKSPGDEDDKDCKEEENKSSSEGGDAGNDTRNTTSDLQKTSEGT
UniProt P02724: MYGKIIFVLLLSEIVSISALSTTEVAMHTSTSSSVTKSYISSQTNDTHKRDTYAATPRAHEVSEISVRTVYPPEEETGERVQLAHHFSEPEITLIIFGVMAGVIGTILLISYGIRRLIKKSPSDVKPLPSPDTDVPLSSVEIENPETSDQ
UniProt P09211: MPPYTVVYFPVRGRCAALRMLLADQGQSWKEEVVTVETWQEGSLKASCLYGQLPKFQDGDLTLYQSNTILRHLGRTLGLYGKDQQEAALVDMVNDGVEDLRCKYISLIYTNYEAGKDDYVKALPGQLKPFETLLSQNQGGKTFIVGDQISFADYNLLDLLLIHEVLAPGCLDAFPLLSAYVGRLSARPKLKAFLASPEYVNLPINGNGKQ
UniProt Q9Y2Q3: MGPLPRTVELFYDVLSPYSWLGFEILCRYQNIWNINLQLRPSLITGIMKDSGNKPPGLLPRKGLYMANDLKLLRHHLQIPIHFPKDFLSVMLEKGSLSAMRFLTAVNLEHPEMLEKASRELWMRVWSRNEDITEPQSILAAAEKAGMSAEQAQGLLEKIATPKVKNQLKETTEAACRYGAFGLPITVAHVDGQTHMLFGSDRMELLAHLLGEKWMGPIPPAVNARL
UniProt O75367, whole entry, looked up: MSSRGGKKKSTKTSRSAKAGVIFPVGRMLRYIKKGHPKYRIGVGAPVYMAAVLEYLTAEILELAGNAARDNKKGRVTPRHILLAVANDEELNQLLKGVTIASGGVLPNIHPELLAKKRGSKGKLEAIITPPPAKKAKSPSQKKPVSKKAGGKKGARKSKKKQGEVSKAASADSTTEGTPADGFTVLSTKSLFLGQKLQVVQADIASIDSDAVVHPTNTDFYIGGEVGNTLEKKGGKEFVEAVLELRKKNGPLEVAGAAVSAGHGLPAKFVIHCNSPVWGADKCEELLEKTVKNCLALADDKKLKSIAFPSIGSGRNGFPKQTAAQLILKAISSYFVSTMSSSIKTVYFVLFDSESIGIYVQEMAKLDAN
UniProt Q92759: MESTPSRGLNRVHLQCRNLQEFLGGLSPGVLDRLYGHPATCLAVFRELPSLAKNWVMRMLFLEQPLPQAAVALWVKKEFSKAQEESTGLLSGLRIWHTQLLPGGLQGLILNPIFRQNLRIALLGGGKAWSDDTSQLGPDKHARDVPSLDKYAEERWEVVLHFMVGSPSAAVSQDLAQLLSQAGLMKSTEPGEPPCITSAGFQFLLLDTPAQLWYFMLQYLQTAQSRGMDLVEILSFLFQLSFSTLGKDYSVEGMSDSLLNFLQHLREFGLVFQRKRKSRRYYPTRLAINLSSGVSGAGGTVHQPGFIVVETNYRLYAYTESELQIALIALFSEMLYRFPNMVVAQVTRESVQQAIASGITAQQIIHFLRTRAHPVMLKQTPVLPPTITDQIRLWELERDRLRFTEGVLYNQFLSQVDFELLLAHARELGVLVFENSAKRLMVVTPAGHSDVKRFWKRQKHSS
UniProt Q7Z4H7: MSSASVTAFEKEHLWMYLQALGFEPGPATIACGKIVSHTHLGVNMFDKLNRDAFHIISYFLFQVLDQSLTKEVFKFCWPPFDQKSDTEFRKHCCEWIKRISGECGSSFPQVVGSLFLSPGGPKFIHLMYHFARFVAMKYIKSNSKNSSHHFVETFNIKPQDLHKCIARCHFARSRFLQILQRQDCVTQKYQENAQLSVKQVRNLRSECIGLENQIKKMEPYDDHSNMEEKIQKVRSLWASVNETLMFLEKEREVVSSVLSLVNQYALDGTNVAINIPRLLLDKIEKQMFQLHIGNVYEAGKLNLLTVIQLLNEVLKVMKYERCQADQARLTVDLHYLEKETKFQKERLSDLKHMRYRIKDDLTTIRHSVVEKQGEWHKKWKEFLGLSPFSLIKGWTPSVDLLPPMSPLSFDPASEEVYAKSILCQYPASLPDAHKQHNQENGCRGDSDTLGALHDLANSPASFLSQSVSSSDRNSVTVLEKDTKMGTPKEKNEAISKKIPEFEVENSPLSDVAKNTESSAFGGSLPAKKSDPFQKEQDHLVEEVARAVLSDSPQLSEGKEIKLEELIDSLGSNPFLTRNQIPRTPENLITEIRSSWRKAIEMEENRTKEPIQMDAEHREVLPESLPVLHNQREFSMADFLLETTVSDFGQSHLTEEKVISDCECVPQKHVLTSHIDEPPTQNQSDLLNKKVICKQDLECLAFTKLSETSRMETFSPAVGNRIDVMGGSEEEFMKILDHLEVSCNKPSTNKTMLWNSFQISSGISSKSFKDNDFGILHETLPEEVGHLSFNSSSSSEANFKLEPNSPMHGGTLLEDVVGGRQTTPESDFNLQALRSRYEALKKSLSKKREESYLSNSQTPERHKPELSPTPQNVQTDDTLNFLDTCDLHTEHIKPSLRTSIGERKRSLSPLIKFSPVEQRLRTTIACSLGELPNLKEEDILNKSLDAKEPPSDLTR

How the values were obtained:
Assay in all cases: log2 fold change, soluble protein after heating vs DMSO (PISA); higher = thermal stabilisation; K562 cells, 10 uM, 30 min; active = over 0.2 and 3.5 SD of the protein, either way, in both replicates (recomputed)
[1] = compound: CC[C@@H]1C(=O)N(C)c2cnc(Nc3ccc(C(=O)NC4CCN(C)CC4)cc3OC)nc2N1C1CCCC1
Procedure, shortened: (§1)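 Soluble protein was quantified by TMTpro 16plex LC-MS/MS after channel sums were equalised. It was obtained as the supernatant after 21,000xg for 90 min from pooled aliquots of K562 cells (2×10^6 cells/mL, 10 μM compound, 30 min) heated for 3 min across 48°C-58°C and extracted in PBS with 0.5% NP-40 at 4°C. Thermal stability values are relative to control samples and come from duplicates. They are given as log2 fold changes.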

[2] = compound: CC[C@@H]1C(=O)N(C)c2cnc(Nc3ccc(C(=O)N[C@H]4CC[C@H](N5CCN(CC6CC6)CC5)CC4)cc3OC)nc2N1C(C)C [volasertib]
Procedure, shortened: as §1

[3] = compound: CC[C@H](C)N1C=C(C2=C(C=C(C=C21)C3=CN=C(C=C3)N4CCNCC4)C(=O)NCC5=C(C=C(NC5=O)C)C)C
Procedure, shortened: as §1

[4] = compound: CC[C@H](C)[C@@H](C(=O)N[C@@H]([C@@H](C)O)C(=O)N[C@@H](CC(C)C)C(=O)[C@]1(CO1)C)NC(=O)[C@H]([C@@H](C)CC)N(C)C(=O)C [epoxomicin]
Procedure, shortened: as §1

[5] = compound: CCn1c(C(=O)N(C2CC2)C2CC2)cc2c3c(ncn3C)c(Nc3cc(C)n(C)n3)nc21
Procedure, shortened: as §1

[6] = compound: CCn1cc(-c2ccnc3[nH]c(-c4cccc(CN(C)C)c4)cc23)c(-c2ccc(NC(=O)N(C)C)cc2)n1
Procedure, shortened: as §1

[7] = compound: CN(C)CC(=O)Nc1ccc2[nH]c(=O)c3ccccc3c2c1
Procedure, shortened: as §1

[8] = compound: CN(CCOC1=CC=C(C=C1)C[C@H]2C(=O)NC(=O)S2)C3=CC=CC=N3 (racemic) [rosiglitazone]
Procedure, shortened: as §1

[9] = compound: CN1C2=C(C3=C1C(=O)N(N=C3)CC4=CC(=CC=C4)N)SC(=C2)S(=O)C
Procedure, shortened: as §1

[10] = compound: CN1CCC(CNc2ccc3ncc(-c4cccc(OC(F)(F)F)c4)n3n2)CC1
Procedure, shortened: as §1

[11] = compound: CN1CCN(CCOc2cc(OC3CCOCC3)c3c(Nc4c(Cl)ccc5c4OCO5)ncnc3c2)CC1 [saracatinib]
Procedure, shortened: as §1

[12] = compound: CN1CCN(c2nc(C3=C(c4c[nH]c5ccccc45)C(=O)NC3=O)c3ccccc3n2)CC1 [sotrastaurin]
Procedure, shortened: as §1

[13] = compound: CN1CC[C@H](c2c(O)cc(O)c3c(=O)cc(-c4ccccc4Cl)oc23)[C@H](O)C1 [alvocidib]
Procedure, shortened: as §1

[14] = compound: CN1CCc2c(c3ccccc3n2Cc2ccc(C(=O)NO)cc2)C1 [Tubastatin A]
Procedure, shortened: as §1

[15] = compound: CNC(=O)C1=CC=CC=C1NC2=NC(=NC=C2Cl)NC3=C(C=C(C=C3)N4CCOCC4)OC
Procedure, shortened: as §1

[16] = compound: CNC(=O)c1ccc(Nc2ncc(C(F)(F)F)c(NCc3nccnc3N(C)S(C)(=O)=O)n2)cc1 [defactinib]
Procedure, shortened: as §1

[17] = compound: CNCc1ccc(-c2[nH]c3cc(F)cc4c3c2CCNC4=O)cc1 [rucaparib]
Procedure, shortened: as §1

[18] = compound: CNc1nc(-c2ccc3c(N)n[nH]c3c2)cc(N2C[C@@H](C(=O)NC3CCCCC3)CC[C@H]2C)n1
Procedure, shortened: as §1

[19] = compound: COC(=O)N[C@@H](C)CNc1nccc(-c2cn(C(C)C)nc2-c2cc(Cl)cc(NS(C)(=O)=O)c2F)n1 [encorafenib]
Procedure, shortened: as §1

[20] = compound: COC(=O)[C@H](CCSC)NC(=O)C1=C(C=C(C=C1)NC[C@H](CS)N)C2=CC=CC=C2
Procedure, shortened: as §1

| Target | log2 fold change [1] | log2 fold change [2] | log2 fold change [3] | log2 fold change [4] | log2 fold change [5] | log2 fold change [6] | log2 fold change [7] | log2 fold change [8] | log2 fold change [9] | log2 fold change [10] | log2 fold change [11] | log2 fold change [12] | log2 fold change [13] | log2 fold change [14] | log2 fold change [15] | log2 fold change [16] | log2 fold change [17] | log2 fold change [18] | log2 fold change [19] | log2 fold change [20] |
| --- | --- | --- | --- | --- | --- | --- | --- | --- | --- | --- | --- | --- | --- | --- | --- | --- | --- | --- | --- | --- |
| GSTM3 (UniProt P21266) | inactive: -0.118 | inactive: -0.323 | inactive: 0.016 | inactive: -0.001 | inactive: 0.003 | inactive: -0.062 | inactive: 0.056 | inactive: 0.104 | inactive: -0.022 | inactive: -0.106 | inactive: 0.085 | inactive: -0.032 | inactive: -0.004 | inactive: -0.018 | inactive: -0.046 | inactive: -0.027 | inactive: 0.027 | inactive: 0.02 | inactive: 0.045 | inactive: 0.039 |
| GTPBP1 (UniProt O00178) | inactive: -0.004 | inactive: -0.157 | inactive: 0.009 | inactive: -0.024 | inactive: 0.022 | inactive: 0 | inactive: -0.031 | inactive: 0.008 | inactive: -0.021 | inactive: -0.005 | inactive: 0.006 | inactive: 0.059 | inactive: -0.014 | inactive: 0.012 | inactive: -0.056 | inactive: 0.008 | inactive: 0.046 | inactive: 0.059 | inactive: 0.057 | inactive: -0.042 |
| H1-4 (UniProt P10412) | inactive: 0.136 | inactive: 0.244 | inactive: -0.026 | inactive: -0.345 | inactive: 0.017 | inactive: 0.205 | inactive: -0.088 | inactive: -0.188 | inactive: 0.342 | inactive: 0.317 | inactive: -0.22 | inactive: -0.091 | inactive: 0.269 | inactive: 0.034 | inactive: -0.002 | inactive: 0.311 | inactive: 0.479 | inactive: 0.121 | inactive: 0.122 | inactive: 0.032 |
| HEXIM1 (UniProt O94992) | inactive: 0.079 | inactive: 0.16 | inactive: -0.048 | inactive: -0.059 | inactive: -0.025 | inactive: 0.148 | inactive: -0.049 | inactive: -0.041 | inactive: -0.021 | inactive: 0.089 | inactive: -0.042 | inactive: 0.065 | inactive: 0.074 | inactive: -0.011 | inactive: -0.061 | inactive: 0.073 | inactive: 0.053 | inactive: -0.042 | inactive: -0.002 | inactive: -0.049 |
| GTF3C1 (UniProt Q12789) | inactive: 0.273 | inactive: -0.179 | inactive: -0.14 | inactive: -0.144 | inactive: -0.149 | inactive: 0.035 | inactive: -0.209 | inactive: 0.23 | inactive: 0.126 | inactive: -0.264 | inactive: -0.125 | inactive: -0.265 | inactive: 0.103 | inactive: 0.182 | inactive: -0.169 | inactive: 0.011 | inactive: -0.337 | inactive: -0.049 | inactive: 0.238 | inactive: 0.038 |
| HBE1 (UniProt P02100) | inactive: 0.007 | inactive: -0.069 | inactive: -0.037 | inactive: 0.302 | inactive: 0.078 | inactive: -0.01 | inactive: 0 | inactive: 0.016 | inactive: -0.046 | inactive: 0 | inactive: -0.012 | inactive: 0.005 | inactive: -0.037 | inactive: -0.117 | inactive: -0.033 | inactive: -0.028 | inactive: -0.034 | inactive: -0.007 | inactive: -0.026 | inactive: -0.049 |
| HDGFL3 (UniProt Q9Y3E1) | inactive: 0.015 | inactive: 0.04 | inactive: 0.008 | inactive: -0.027 | inactive: 0.052 | inactive: 0.036 | inactive: -0.029 | inactive: 0.054 | inactive: -0.05 | inactive: -0.037 | inactive: -0.019 | inactive: -0.014 | inactive: 0.064 | inactive: -0.053 | inactive: -0.017 | inactive: -0.008 | inactive: 0.007 | inactive: -0.012 | inactive: -0.073 | inactive: 0.025 |
| GYPA (UniProt P02724) | inactive: 0.046 | inactive: 0.142 | inactive: 0.222 | inactive: 0.191 | inactive: 0.009 | inactive: 0.025 | inactive: 0.074 | inactive: -0.094 | inactive: -0.009 | inactive: 0.302 | inactive: -0.068 | inactive: -0.037 | inactive: -0.123 | inactive: -0.016 | inactive: -0.128 | inactive: -0.066 | inactive: -0.072 | inactive: 0.096 | inactive: -0.131 | inactive: 0.075 |
| HERC1 (UniProt Q15751) | inactive: -0.005 | inactive: -0.185 | inactive: 0.024 | inactive: -0.08 | inactive: 0.013 | inactive: -0.01 | inactive: -0.024 | inactive: 0.025 | inactive: 0.008 | inactive: 0 | inactive: 0.008 | inactive: -0.043 | inactive: -0.012 | inactive: -0.046 | inactive: 0.017 | inactive: -0.016 | inactive: -0.012 | inactive: 0.006 | inactive: 0.005 | inactive: -0.019 |
| HARS (UniProt P12081) | inactive: 0.018 | inactive: 0.077 | inactive: -0.041 | inactive: -0.003 | inactive: 0.006 | inactive: 0.004 | inactive: -0.027 | inactive: -0.02 | inactive: -0.06 | inactive: -0.022 | inactive: 0.031 | inactive: 0.034 | inactive: 0.012 | inactive: -0.045 | inactive: -0.038 | inactive: 0.005 | inactive: -0.056 | inactive: -0.035 | inactive: -0.019 | inactive: 0.053 |
| GSTP1 (UniProt P09211) | active: 0.295 | active: 0.362 | inactive: 0.009 | inactive: -0.025 |  | inactive: 0.012 | inactive: -0.013 |  | inactive: -0.066 | inactive: -0.034 | inactive: -0.011 | inactive: 0.053 |  | inactive: -0.015 | inactive: -0.001 | inactive: -0.033 | inactive: -0.046 | inactive: 0.02 | inactive: -0.007 | inactive: 0.027 |
| GSTK1 (UniProt Q9Y2Q3) | inactive: -0.062 | inactive: -0.187 | inactive: 0.049 | inactive: 0.041 | inactive: -0.027 | inactive: -0.054 | inactive: 0.065 | inactive: 0.03 | inactive: -0.098 | inactive: 0.064 | inactive: -0.055 | inactive: 0.007 | inactive: -0.046 | inactive: 0.004 | inactive: -0.031 | inactive: -0.016 | inactive: -0.049 | inactive: 0.05 | inactive: 0.012 | inactive: -0.02 |
| H2AFY (UniProt O75367) | inactive: -0.063 | inactive: -0.075 | inactive: -0.224 | inactive: -0.209 | inactive: -0.127 | inactive: 0.043 |  | inactive: 0.102 |  | inactive: 0.094 |  |  | inactive: -0.024 | inactive: -0.024 | inactive: -0.19 |  | inactive: 0.247 |  | inactive: 0.166 |  |
| GTF2H4 (UniProt Q92759) | inactive: -0.115 | inactive: -0.13 | inactive: -0.005 | inactive: -0.479 |  | inactive: 0.11 | inactive: -0.163 |  | inactive: 0.119 | inactive: -0.017 | inactive: -0.05 | inactive: 0.089 | inactive: -0.061 | inactive: -0.084 |  | inactive: -0.049 | inactive: 0.306 | inactive: 0.035 | inactive: -0.459 | inactive: 0.172 |
| GTF2A1 (UniProt P52655) | inactive: -0.012 | inactive: 0.061 | inactive: -0.051 | inactive: 0.201 |  | inactive: 0.035 | inactive: -0.006 |  | inactive: -0.018 | inactive: -0.051 | inactive: 0.048 | inactive: 0.087 |  | inactive: 0.003 | inactive: -0.007 | inactive: -0.038 | inactive: -0.021 | inactive: -0.003 | inactive: -0.056 | inactive: 0.032 |
| HEATR5A (UniProt Q86XA9) | inactive: -0.152 | inactive: -0.051 | inactive: 0.176 | inactive: 0.087 | inactive: -0.101 | inactive: 0.07 | inactive: 0.037 | inactive: 0.034 | inactive: -0.047 | inactive: 0.022 | inactive: 0 | inactive: -0.168 | inactive: 0 | inactive: -0.086 | inactive: -0.013 | inactive: -0.081 | inactive: -0.053 | inactive: 0.012 | inactive: 0.149 | inactive: 0.08 |
| HAUS6 (UniProt Q7Z4H7) | inactive: 0.05 | inactive: -0.412 | inactive: 0.053 | inactive: -0.103 | inactive: 0.001 |  |  | inactive: -0.079 | inactive: 0.28 |  | inactive: -0.104 | inactive: -0.057 | inactive: 0 | inactive: -0.146 | inactive: -0.05 |  | inactive: 0.252 | inactive: 0.085 | inactive: 0.256 |  |

A second format for part of the listing above:
Target,log2 fold change [1],log2 fold change [2],log2 fold change [3],log2 fold change [4],log2 fold change [5],log2 fold change [6],log2 fold change [7],log2 fold change [8],log2 fold change [9],log2 fold change [10],log2 fold change [11],log2 fold change [12],log2 fold change [13],log2 fold change [14],log2 fold change [15],log2 fold change [16],log2 fold change [17],log2 fold change [18],log2 fold change [19],log2 fold change [20]
GSTP1 (UniProt P09211),active: 0.295,active: 0.362,inactive: 0.009,inactive: -0.025,,inactive: 0.012,inactive: -0.013,,inactive: -0.066,inactive: -0.034,inactive: -0.011,inactive: 0.053,,inactive: -0.015,inactive: -0.001,inactive: -0.033,inactive: -0.046,inactive: 0.02,inactive: -0.007,inactive: 0.027
GSTK1 (UniProt Q9Y2Q3),inactive: -0.062,inactive: -0.187,inactive: 0.049,inactive: 0.041,inactive: -0.027,inactive: -0.054,inactive: 0.065,inactive: 0.03,inactive: -0.098,inactive: 0.064,inactive: -0.055,inactive: 0.007,inactive: -0.046,inactive: 0.004,inactive: -0.031,inactive: -0.016,inactive: -0.049,inactive: 0.05,inactive: 0.012,inactive: -0.02
